# Library screen at single concentrations

Amino acid sequences for entries named in this document (tags omitted). Residues count along the entry.
UniProt A4I591, 1-473: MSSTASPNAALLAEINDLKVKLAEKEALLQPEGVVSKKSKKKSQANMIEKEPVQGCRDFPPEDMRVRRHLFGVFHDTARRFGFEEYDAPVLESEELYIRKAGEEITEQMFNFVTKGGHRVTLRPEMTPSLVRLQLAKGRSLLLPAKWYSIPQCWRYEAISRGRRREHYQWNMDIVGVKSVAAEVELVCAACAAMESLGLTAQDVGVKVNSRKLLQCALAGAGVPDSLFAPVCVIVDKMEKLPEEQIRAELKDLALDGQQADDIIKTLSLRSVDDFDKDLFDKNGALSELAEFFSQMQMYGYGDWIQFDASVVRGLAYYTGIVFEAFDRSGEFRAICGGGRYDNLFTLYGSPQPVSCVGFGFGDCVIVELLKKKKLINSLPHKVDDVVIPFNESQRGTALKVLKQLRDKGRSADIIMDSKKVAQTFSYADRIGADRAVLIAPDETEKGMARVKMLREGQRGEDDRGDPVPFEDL
UniProt I6X8D2, whole entry: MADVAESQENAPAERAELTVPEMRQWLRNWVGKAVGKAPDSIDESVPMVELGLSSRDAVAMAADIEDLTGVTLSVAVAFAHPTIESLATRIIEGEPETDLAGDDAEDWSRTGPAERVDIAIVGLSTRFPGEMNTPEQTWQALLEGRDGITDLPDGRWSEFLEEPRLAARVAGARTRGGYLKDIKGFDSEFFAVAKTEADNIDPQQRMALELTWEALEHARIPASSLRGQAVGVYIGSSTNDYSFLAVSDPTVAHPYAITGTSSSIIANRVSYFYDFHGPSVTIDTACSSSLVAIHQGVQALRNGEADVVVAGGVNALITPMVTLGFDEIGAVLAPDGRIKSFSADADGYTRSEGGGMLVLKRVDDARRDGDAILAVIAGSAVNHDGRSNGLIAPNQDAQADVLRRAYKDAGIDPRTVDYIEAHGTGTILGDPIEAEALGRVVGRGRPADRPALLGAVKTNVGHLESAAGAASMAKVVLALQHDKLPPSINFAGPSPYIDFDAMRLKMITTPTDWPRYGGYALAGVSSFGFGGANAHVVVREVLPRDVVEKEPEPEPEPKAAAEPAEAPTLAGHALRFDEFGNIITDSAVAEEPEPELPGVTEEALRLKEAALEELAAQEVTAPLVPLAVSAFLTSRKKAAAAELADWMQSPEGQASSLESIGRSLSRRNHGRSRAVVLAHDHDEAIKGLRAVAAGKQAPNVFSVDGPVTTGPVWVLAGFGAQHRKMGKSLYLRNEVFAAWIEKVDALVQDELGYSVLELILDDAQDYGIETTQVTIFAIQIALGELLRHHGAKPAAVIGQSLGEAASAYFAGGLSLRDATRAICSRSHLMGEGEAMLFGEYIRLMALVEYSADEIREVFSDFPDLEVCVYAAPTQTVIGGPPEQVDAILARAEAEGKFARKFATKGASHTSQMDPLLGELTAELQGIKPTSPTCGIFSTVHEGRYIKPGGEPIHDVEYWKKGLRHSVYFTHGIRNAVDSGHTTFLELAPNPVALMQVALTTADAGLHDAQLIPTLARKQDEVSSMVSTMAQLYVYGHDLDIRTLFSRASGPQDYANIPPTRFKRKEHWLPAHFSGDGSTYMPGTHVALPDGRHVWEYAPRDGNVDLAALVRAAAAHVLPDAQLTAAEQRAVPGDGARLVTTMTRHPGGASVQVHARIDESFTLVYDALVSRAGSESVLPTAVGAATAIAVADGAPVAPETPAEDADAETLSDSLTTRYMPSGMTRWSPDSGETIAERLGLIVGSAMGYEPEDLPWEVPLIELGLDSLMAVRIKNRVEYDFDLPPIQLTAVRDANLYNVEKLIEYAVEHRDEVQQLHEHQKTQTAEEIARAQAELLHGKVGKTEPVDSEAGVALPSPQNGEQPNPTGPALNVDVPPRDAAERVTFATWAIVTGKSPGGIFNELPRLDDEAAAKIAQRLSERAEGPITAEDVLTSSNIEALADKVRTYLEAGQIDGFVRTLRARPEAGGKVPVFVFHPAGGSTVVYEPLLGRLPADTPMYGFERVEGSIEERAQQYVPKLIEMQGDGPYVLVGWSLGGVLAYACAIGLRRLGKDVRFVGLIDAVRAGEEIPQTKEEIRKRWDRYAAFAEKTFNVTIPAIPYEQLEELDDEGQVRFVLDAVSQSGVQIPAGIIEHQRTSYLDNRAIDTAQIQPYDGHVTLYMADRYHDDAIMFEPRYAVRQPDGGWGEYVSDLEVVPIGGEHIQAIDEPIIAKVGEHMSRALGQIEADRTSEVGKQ

From ChEMBL document CHEMBL3988442, “University of Dundee, Small-Polar-MMV Screening Library” (2021).

A: 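Cell assay of Leishmania donovani living inside macrophages; the read-out is not stated. Compounds at 30 µM. The record gives no direction; compounds that gave an IC50 in retests scored well above the rest, so higher reads as stronger inhibition. About 69,000 compounds were tested under these conditions; 1.5% (about 1,000) showed 50% or more at least once.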
B: 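Histidine-tRNA ligase, Leishmania infantum (UniProt A4I591). Enzyme assay of histidyl-tRNA synthetase; the read-out is not stated. Tested at 30 µM. The record gives no direction; compounds that gave an IC50 in retests scored well above the rest, so higher reads as stronger inhibition. The assay is labelled LdHisRS but filed under L. infantum. Size under these conditions: about 69,000 compounds, about 410 of them at 50% or above in at least one test.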
C: 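Enzyme assay of the thioesterase domain of polyketide synthase 13; the read-out is not stated. Target: Polyketide synthase Pks13, Mycobacterium tuberculosis (UniProt I6X8D2). Compounds at 30 µM. The record gives no direction; the compounds picked for IC50 retests had high values, so higher reads as stronger inhibition. Size under these conditions: about 67,000 compounds, about 300 of them at 50% or above in at least one test.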

Each number is a percent effect as filed. The controls that fix the scale are not given in the record; negative values are as filed. Compounds were drawn at random from those tested, without regard to their results. Two or more numbers in one place are separate tests of the same structure; such repeats can differ widely. A dash means the value is not listed here; it may have been measured.

SMILES | A | B | C
CC(C)CC(NS(C)(=O)=O)C(=O)N(C)Cc1nnc2n1CCC2 (configuration not stated) | 13.5 | 15.49 | -27.99
O=C(Nc1ccc(-c2cscn2)cc1)C1CCCN(Cc2ccon2)C1 (configuration not stated) | -1.096 | 1.408 | -9.285
c1cnc(Nc2cncc(C3CCCN3)n2)cn1 (configuration not stated) | - | 6.711 | 15.02
CCCS(=O)(=O)N1CCC2(CN(c3ccccc3)C(=O)CN2C)C1 (configuration not stated) | - | 9.877 | -2.041
O=C1CN([C@@H]2CC[C@@H](NS(=O)(=O)c3ccc(F)cc3)[C@H]2O)CCN1 | 2.395 | 13.99 | 6.035
CC[C@H](C)Nc1nccc(-c2cnc3sc(C)cn3c2=O)n1 | 27.13 & 5.791 | 20 | 21.94
O=c1cc(N2CCCCC2)cnn1CC(O)C(F)(F)F (configuration not stated) | -38.62 | 3.191 | -2.174
COc1cc2nc3n(c(=O)c2cc1OC)CCN(C)CC3 | -2.563 | 5.556 | -21.59
CCNC(=O)[C@@H]1C[C@@H](NC(=O)c2ccsc2)CN1CCCSC | 31.02 | 20.21 | -18.34
Cn1cc2c(n1)C(CNCc1ccco1)OCC2 (configuration not stated) | - | 15.28 | -11.03
COc1c(CNCc2ccc(CN(C)C)cc2)c(C)nn1C | 4.711 | 2.703 | -8.237
O=C(O)C(F)(F)F.O=C(O)C(F)(F)F.O=C(O)C(F)(F)F.[H][C@]12C[C@@H](CN(C)C)N(C(C)C)[C@@]1([H])CCN(c1ncc(F)cn1)C2 | 14.13 | - | -
CNC(=O)C(C)(C)N1CCC[C@H]1C(=O)NCCN1CCCC1.Cl.Cl | -14.99 | - | -
Cc1occc1C(=O)NCC(=O)NCCCOc1ccc(F)cc1 | 25.27 | 13.19 | -1.326
Cc1cc(CN2CCC(CNS(=O)(=O)c3ccccc3Cl)CC2)c(C)o1 | 4.149 | 19.35 | -13.83
CCC1CN(C(=O)NCc2cccnc2-n2cccn2)CCO1 (configuration not stated) | 17.76 | 10.34 | -21.61
CCOCC1C[C@@H]2OCCN(C(=O)c3ccc[nH]3)[C@H]2C1 (some centres not stated) | - | 15.52 | -32.79
[H][C@@]12C[C@H](C(=O)NC)[C@@]([H])(CN(C(=O)Nc3ccc(CC)cc3)C1)O2 | -4.468 | - | -
CN(Cc1cccc2ncccc12)C(=O)CCC(F)(F)F | -36.37 | 13.19 | -27.66
Cc1cccc(CN2C[C@@H]3CN(C(=O)[C@H]4CCCO4)C[C@@H]3C2=O)c1 | - | 34.15 | -2.628
Cc1noc(CN(Cc2ccc3c(c2)OCO3)C2CCCC2)n1 | 28.65 | -11.9 | 19.4
COc1ccc(CN2CCC3(CC2)CCN(CCN(C)C)C3=O)cc1.O=C(O)C(F)(F)F.O=C(O)C(F)(F)F | 32.01 | - | -
COc1nn(C)c2c1CCCN(C(=O)c1ccccc1)C2 | 25.51 | 5.769 | -2.217
CCN(C)C[C@@H]1CN(C(=O)c2cc(-c3ccc(F)cc3)n[nH]2)C[C@@H]1CO | 0.6369 | 24.71 | -3.393
COC(=O)c1ccc(NC(C)c2ccc3c(c2)NC(=O)CO3)nn1 (configuration not stated) | 28.37 | 11.7 | -28.42
Cn1cnc2c1C(COCC1CCOCC1)CN(C(=O)c1ccco1)C2.O=C(O)C(F)(F)F (configuration not stated) | -21.75 | - | -
O=C(NCc1ccc(-c2ccn[nH]2)cc1)N1CCC(N2CCCC2)C1 (configuration not stated) | 18.27 | -19.7 | -7.443
[H][C@@]12CNC(=O)N1CCN(C1CCN(C)CC1)C2 | 10.97 | - | -
O=C(O)C(F)(F)F.O=C1CC2(CCN(CC3CC3)C2)CN1c1ccc2c(c1)OCO2 (configuration not stated) | 25.29 | - | -
O=C([C@H]1CCCO1)N1CC[C@H](O)[C@@H]1Cc1ccncc1 | - | 10.68 | -18.52
CCOc1cc(C(=O)N2CCCC(n3nc(C)nc3C)C2)ccn1 (configuration not stated) | -3.979 | 11.61 | -10.56
CC(C)c1ncc2c(n1)CN(CC1CCCCO1)CC2 (configuration not stated) | 19.47 | 20 | -18.59
CCN1C[C@@H]2[C@@H](OC)CCN(S(=O)(=O)c3ccccc3)[C@@H]2C1 | - | 9.489 | -33.14
Cc1ccc(-c2cccc(CC3(C(=O)O)CCOCC3)c2)c(C)c1 | 13.85 | 5.208 | 10.33
Cc1nn(C)c2nc(NC3CCNCC3)sc12 | -3.335 | 21.71 | -5.176
O=S(=O)(NCC1(c2cccs2)CCCC1)c1cccnc1 | -4.177 | 12 | 3.092
[H][C@]12CC[C@]([H])(CN(c3ncccn3)C1)N(Cc1ccsc1)C2 | 4.361 | - | -
COc1cccc(C(c2c(C)n[nH]c2O)c2c(C)n[nH]c2O)c1OC | -18.21 | 14.29 | -16.51
CCc1nc(C(=O)N2CC(C)CN(C)c3ccccc32)c[nH]1 (configuration not stated) | 17.44 | 18.99 | -30.07
Cc1ncoc1C(=O)N1CCOC(CC2CCCCC2)C1 (configuration not stated) | -7.689 | 12.9 | -2.407
Cc1ccccc1CC(C)NC(=O)Nc1cnn(CC(N)=O)c1 (configuration not stated) | 2.364 | 13.04 | -6.978
Cc1nn(CCO)c(C)c1CNCc1cccnc1N(C)C | 28.75 | 0 | -4.507
CN(C)CCn1ccnc1C1CCCN(c2ncc(Cl)cc2F)C1 (configuration not stated) | 16 | -1.639 | 8.407
Cc1ccccc1Cc1cnc(NC(=O)C2CNC(=O)N2)s1 (configuration not stated) | 35.83 | 13.51 | -0.3292
Cc1ccc(CNC(=O)C2CCN(C(=O)C(C)C)CC2)n1C | -1.951 | 7.895 | -0.4208
COc1ccccc1C(=O)N1CCCC1c1ncc2c(n1)CCNC2 (configuration not stated) | - | 18.84 | 9.759
O=C(O)Cn1nc(C2CC2)c2c(-c3ccco3)ccnc21 | -20.87 | 27.47 | 12.56
[H][C@]12CC[C@]([H])(CN(C(C)=O)C1)N(Cc1ccc(Cn3cccn3)cc1)C2 | 10.16 | - | -
CC(=O)c1ccccc1NC(=O)CCN1CCSCC1 | -5.314 | 4.225 | 0.6961
O=C(C1CCCC1)N1CCC(Nc2ccncn2)CC1 | 0.2734 | 17.95 | -22.38
CN(C(=O)c1ccncc1Cl)c1ccccc1S(C)(=O)=O | -16.96 | -13.33 | -6.377
COc1c(C(N)=O)cn(C)c1-c1nc2cc(NC(C)=O)ccc2n1C | 10.88 | 10.53 | -5.578
CCc1nnc2n1CCN(C(=O)c1cc3c(F)cccc3[nH]1)C2 | 19.87 | 15.65 | -2.483
CC(C)NC(=O)N1CCCCCC1C1CCN(c2ncccn2)CC1 (configuration not stated) | -0.8611 | 7.752 | -6.612
O=C(Nc1nnn[nH]1)c1ccc(-n2cccc2)c(F)c1 | 15.09 | 17.65 | -1.161
Cc1ccc(CNC(=O)CN2CCN(CC(O)C3CC3)CC2)cc1.Cl.Cl (configuration not stated) | 31.99 | - | -
CCc1ccc(CN(Cc2ccccc2)CC(C)CO)nc1 (configuration not stated) | 7.862 | 14.29 | -7.827
CC1=CCN(C(=O)Nc2ccccc2N2CCOC2=O)CC1 | 48.74 | 9.677 | -17.38
CN1CC(=O)N(c2cccc(F)c2)CC12CCNC2 (configuration not stated) | -53.5 | 18.05 | -23.88
c1ccc(C2CCN(c3ncnc4c3CCNC4)CC2)cc1 | 29.27 | 20.41 | 6.192
CCC(CC)(CNC(=O)OC(C)(C)C)NC(=O)C1CC1 | -52.19 | -4 | -7.622
O=C(C1CCOCC1)N1CCOC(CC2CCCCC2)C1 (configuration not stated) | 7.234 | 7.937 | -3.153
NC(=O)CNC(=O)c1cc(Cn2cnc3ccccc32)[nH]n1 | -31.55 | 7.843 | -
O=C(O)C(F)(F)F.O=C(O)C(F)(F)F.O=C(O)C(F)(F)F.c1cnc(N2CCC3(CCN(Cc4cccnc4)CC3)CC2)nc1 | 19.95 | - | -
Cc1nc(-c2ccccc2)ccc1C(=O)N1CCn2c(C)nnc2C1 | 10.77 | 19.3 | -11.31